Article PMC9468113
No constants are given. Whether binding was seen depends on the method and setting. In cells and extracts the contact can be indirect. Some binding calls cover weakened binding; strength is not graded here. Each block holds one binder with its values, some of them ahead of it.

Legend:
[1] = target: T1, endogenous MIF in human platelet preparations and thrombus tissue (human (endogenous in platelets and thrombus tissue)) (UniProt P14174); assay: proximity ligation; Duolink PLA on cryosections of human thrombi from PAD patients; mouse anti-MIF D2 and rabbit anti-CXCL4L1 PA5-21944
T1 sequence: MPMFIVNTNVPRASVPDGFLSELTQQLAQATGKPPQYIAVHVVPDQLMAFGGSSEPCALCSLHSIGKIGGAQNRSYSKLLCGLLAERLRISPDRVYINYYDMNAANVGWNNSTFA

[2] = target: T2, biotinylated human MIF (macrophage migration inhibitory factor) (human) (UniProt P14174); assay: pull-down; semi-endogenous pull-down: precleared MonoMac6 lysate incubated with biotin-MIF overnight at 4 °C, captured on streptavidin paramagnetic beads; Western blot for CXCL4L1 and MIF; only the target purified
T2 sequence (chain, biotin (NHS ester labelling; positions not stated)): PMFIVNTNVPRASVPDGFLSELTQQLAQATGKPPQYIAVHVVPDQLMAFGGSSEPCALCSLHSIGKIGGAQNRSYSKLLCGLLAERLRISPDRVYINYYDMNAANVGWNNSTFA

binding [1]: binds
B1: endogenous CXCL4L1 in human platelet preparations and thrombus tissue (protein, UniProt P10720 31-104)
chain: FARAEAEEDGDLQCLCVKTTSQVRPRHITSLEVIKAGPHCPTAQLIATLKNGRKICLDLQALLYKKIIKEHLES

binding [2]: binds
B2: endogenous CXCL4L1 from MonoMac6 lysates (protein, UniProt P10720 31-104)
chain: B1 chain
